## Percent effect of library compounds

By UniProt entry, the sequences of proteins in these tests, tags left out. Residues count along the entry.
UniProt A4I591, 1-473: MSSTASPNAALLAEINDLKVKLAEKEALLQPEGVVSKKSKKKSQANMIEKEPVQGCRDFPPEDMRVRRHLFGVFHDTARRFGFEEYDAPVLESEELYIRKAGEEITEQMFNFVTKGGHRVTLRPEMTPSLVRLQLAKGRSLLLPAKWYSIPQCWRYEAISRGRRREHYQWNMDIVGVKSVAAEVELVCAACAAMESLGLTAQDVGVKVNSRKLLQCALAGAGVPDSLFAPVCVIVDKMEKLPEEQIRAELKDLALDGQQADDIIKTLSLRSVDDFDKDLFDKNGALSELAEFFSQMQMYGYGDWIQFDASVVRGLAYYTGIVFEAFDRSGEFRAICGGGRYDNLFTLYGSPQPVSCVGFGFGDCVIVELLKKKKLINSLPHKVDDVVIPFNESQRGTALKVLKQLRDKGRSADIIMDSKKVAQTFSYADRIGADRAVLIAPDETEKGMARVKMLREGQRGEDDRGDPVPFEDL

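Histidine-tRNA ligase, Leishmania infantum (UniProt A4I591). Enzyme assay of histidyl-tRNA synthetase; the read-out is not stated. Concentration: 30 µM. Higher reads as stronger inhibition (inferred: compounds with an IC50 in retests scored well above the rest). The assay is labelled LdHisRS but filed under L. infantum. About 69,000 compounds were tested under these conditions; 0.6% (about 410) showed 50% or more at least once.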

Values are the deposited “Percent Effect”, in %.
How 0% and 100% were set is not recorded. Most values in the screen are low, and negative values occur.
Compounds were drawn at random from those tested, without regard to their results.

| compound | percent effect |
|---|---|
| `Cc1cc(C(F)(F)F)nn1CC(C)C(=O)Nc1cccnc1` (stereo not given) | 6.897 |
| `Cc1ccnc(N2CCCC(c3noc(C(C)C)n3)C2)n1` (stereo not given) | 16.67 |
| `COCCCNC(=O)CN1CCC(c2ccccc2)C1` (stereo not given) | -5 |
| `COc1cc2c(cc1OC)CN(C(=O)NCC1CCCO1)CC2` (stereo not given) | 22.35 |
| `O=C1CC(c2ccccc2)C2(CCN(Cc3ccccn3)CC2)N1` (stereo not given) | 19.51 |
| `Cc1nc(C2CCCN2Cc2ccon2)no1` (stereo not given) | 10.71 |
| `CCOCCNC(=O)c1cccnc1N1CCCC1c1ccccn1` (stereo not given) | 7.921 |
| `CCc1n[nH]c(C2CN(C(=O)Cc3ccc(C)nc3)CCO2)n1` (stereo not given) | 23.29 |
| `O=C(c1ccc(-n2cncn2)cc1)N1CCN(c2cnccn2)CC1` | 11.69 |
| `O=C(Cc1ccc2c(c1)CCO2)N1CCCCC1Cn1cccn1` (stereo not given) | 17.14 |
| `O=C1N[C@@H]2CCN(C(=O)C3CCC3)[C@@H]2C(=O)N1c1ccc(F)cc1` | -16.67 |
| `CC(C)NC(=O)C1CCN(C(C)C(=O)N2CCc3sccc3C2)CC1` (stereo not given) | 20 |
| `O=C(Cc1ccccn1)N1CCN(C(=O)c2cccc3[nH]ncc23)CC1` | 8.108 |
| `Cc1ccc(CN2CCn3cc(CN4CCN(C)CC4)nc3C2)cc1` | 7.921 |
| `Cc1nn(-c2ccccc2)c2c1c(C(F)F)cc(=O)n2CC(=O)O` | 8.621 |
| `O=C(NC1CC1)c1cc(C(F)(F)F)cc(C(F)(F)F)n1` | 16.67 |
| `CC(C)c1ccccc1NC(=O)N1C[C@@H]2CC[C@H](C1)N(C)C2=O` | 11.76 |
| `O=C(NCCC(O)c1ccco1)c1ccco1` (stereo not given) | 7.692 |
| `CCCN1CCN(C(=O)c2scnc2C)CC1` | 11.43 |
| `Cc1scc(C(=O)N2CCC3(CCCN(C)C3=O)C2)c1-c1ccccc1` (stereo not given) | 19.23 |
| `Cc1ccc(S(=O)(=O)Cc2noc([C@@H]3C[C@@H](O)CN3)n2)cc1` | 19.44 |
| `CC(C)COc1ccc(C2SCC(=O)Nc3c2c(=O)[nH]n3C(C)C)cc1` (stereo not given) | 11.03 |
| `O=C(Cc1ccc(F)cc1)N1CCn2cc(Cn3cncn3)nc2C1` | 22 |
| `Cc1c(C(=O)N2CCS(=O)(=O)CC2)nnn1-c1ccc2ncccc2c1` | 19.28 |
| `Cc1n[nH]c(C)c1CC(=O)NCc1ccccc1Cl` | 21.05 |
| `Cn1c(C2CC2)nc2c1CCN(CC(=O)Nc1nccs1)C2` | 1.786 |
| `COC(=O)c1sccc1S(=O)(=O)N1CCC(Oc2ncccc2Cl)CC1` | 3.846 |
| `CCOc1ccccc1OC1CCN(C(=O)c2ccc(=O)[nH]n2)CC1` | 24.8 |
| `O=C(NCc1cc(Cl)ccn1)NCc1ccco1` | 18.33 |
| `CC(=O)N1CCCCC1c1nc2c(c(NC3CCCC3)n1)CN(C)CC2` (stereo not given) | 30.43 |
| `COc1ncc(C2(O)CCN(Cc3ccc(F)c(F)c3)CC2)c(OC)n1` | 4.348 |
| `OCCOCc1ncn2c1CN(Cc1cccs1)CCC2` | 11.76 |
| `Cc1cc(N2CCCC3(CN(C)C(=O)O3)C2)c2cc3c(cc2n1)OCO3` (stereo not given) | 18.18 |
| `CCN1CC[C@@]2(C(=O)N3CCOCC3)CCN(C(=O)CC(C)C)CC[C@@H]12` | 7.767 |
| `Cc1cnc(CC2COCCN(C(=O)CN3CCOCC3)C2)cn1` (stereo not given) | 9.929 |
| `Cc1csc(C2CCCCN2C(=O)c2cc(C(C)C)[nH]n2)n1` (stereo not given) | 0 |
| `Cc1cc(CC(=O)NC2CCCN(c3ccccc3Cl)C2=O)n[nH]1` (stereo not given) | 3.614 |
| `COCCCN1CC2(CCC1=O)CCN(Cc1cc(C(C)C)no1)CC2` | -4 |
| `CN(CC(=O)NC(N)=O)CC1(c2ccc(Br)cc2)CC1` | 19.64 |
| `COCCCNC(=O)CN1CCSC(c2ccccc2)C1` (stereo not given) | 25 |
| `Cc1n[nH]c(C)c1C1COCCN1C(=O)c1ccc2c(c1)CCO2` (stereo not given) | 2.778 |
| `CSCC(C)N(C)C(=O)CN1CCN(c2ccccn2)CC1` (stereo not given) | 12 |
| `CN(C)C(=O)COC[C@@H]1CC[C@H]2[C@H](CCN2c2ccccn2)O1` | 24.69 |
| `Cc1nn(C)cc1NC(=O)CC1CCN(CCc2ccccc2)CC1` | 5.674 |
| `CC1(C)CC(N2Cc3nc(N4CCOCC4)ncc3C2=O)CC(C)(C)N1` | -0.9434 |
| `Cn1ncc(C(=O)OCC2CCN(c3ccccc3)C2)c1C(F)F` (stereo not given) | 9.091 |
| `COCc1nnc2n1CCN(Cc1ccoc1)C2` | 17.14 |
| `CC(C(=O)Nc1cccc(F)c1)N(C)CCN1CCOCC1` (stereo not given) | 15.56 |
| `Cc1ccc(CN2Cc3ccccc3O[C@]3(CC[C@H](CO)CC3)C2)o1` | 20.62 |
| `CC(C(=O)NCc1ccnc(N2CCCC2)c1)n1cccn1` (stereo not given) | 14.29 |
| `CCN1CCN(C(=O)c2cc(NC(=O)c3ccccc3)n(C)n2)CC1` | 11.9 |
| `CC1CCc2nc(NC(=O)CN(C)C(=O)c3ccco3)sc2C1` (stereo not given) | 9.917 |
| `CC(CCN(C)C)NC(=O)c1cccc(C(F)(F)F)c1F` (stereo not given) | 12.82 |
| `Cc1cnn(CCNc2cnc3ccccc3n2)c1` | 12.5 |
| `COCCN1CCN(C(=O)N2CCCC2)Cc2ccc(C)nc21` | 1 |
| `CN(C)C[C@@H]1CCC[C@@H]2CN(c3ncccn3)C[C@@H]21` | 9.709 |
| `CCc1nc(-c2noc3ccc(C(=O)NCCN(C)C)cc23)co1` | -1.01 |
| `COCc1noc(C2(c3ccc(OC)cc3)CCOCC2)n1` | 21.15 |
| `CC(C)COc1cccc(-c2nc3c([nH]2)CCNC3)c1` | 9.735 |
| `CC(C)N1CCCCC1CCn1cnc2cc(C(F)(F)F)ccc2c1=O` (stereo not given) | 13.04 |
| `O=C(c1ccccn1)N1CC[C@H]2[C@H]1CCN2S(=O)(=O)C1CC1` | 14.04 |
| `O=C(c1ccc[nH]1)N1CC2(CCN(c3ncccn3)C2)C1` | 16.24 |
| `Cc1c(C(=O)N2CCCC2c2cnn(C)c2)nnn1-c1ccccc1` (stereo not given) | 9.231 |

For reference, 5 entries once more:

{"compound": "O=C1N[C@@H]2CCN(C(=O)C3CCC3)[C@@H]2C(=O)N1c1ccc(F)cc1", "percent effect": -16.67}
{"compound": "CC(C)c1ccccc1NC(=O)N1C[C@@H]2CC[C@H](C1)N(C)C2=O", "percent effect": 11.76}
{"compound": "O=C(c1ccccn1)N1CC[C@H]2[C@H]1CCN2S(=O)(=O)C1CC1", "percent effect": 14.04}
{"compound": "COC(=O)c1sccc1S(=O)(=O)N1CCC(Oc2ncccc2Cl)CC1", "percent effect": 3.846}
{"compound": "COCCN1CCN(C(=O)N2CCCC2)Cc2ccc(C)nc21", "percent effect": 1}

Source: ChEMBL document CHEMBL3988442, “University of Dundee, Small-Polar-MMV Screening Library” (2021).